Laboratory results as given in the supplement of paper PMC12764529.
± gives the half width of the 95% confidence interval. For many entries, trypsin and chymotrypsin gave values far apart.

What was measured:
[1] = folding stability dG unfold from chymotrypsin proteolysis; higher = more stable
Procedure: (§1)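 Folding stability of de novo designed mini-proteins (<80 aa, no Cys; designed by TrROS, TrMRF, ProteinMPNN and the joint model) was measured by cDNA display proteolysis with trypsin and chymotrypsin. Each protease was used at 11 concentrations in a threefold dilution series plus a no-protease condition. K50 was inferred by Bayesian fitting of sequencing counts, and dG unfold was derived against a sequence-predicted unfolded-state K50 (Tsuboyama et al. method). Sequences shown include variable-length N-terminal GS-type padding (SAGGSAGG...) inside a display construct carrying a PA tag. Rows were kept only if the AF2 dimer inter-PAE was >15, to exclude likely homo-oligomers.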

[2] = folding stability dG unfold (combined trypsin and chymotrypsin); higher = more stable
Procedure: as §1

| Sequence | folding stability dG unfold [1] | folding stability dG unfold [2] |
| --- | --- | --- |
| SPLRALTPEQLIERARFLVRQLRRAREAGRPEELPRLVAELARLVAEAPGPQRGAIRELLEELDIPPGLLSA [r9_182_TrMRF] | 1.9 ± 0.074 kcal/mol | 1.24 ± 0.049 kcal/mol |
| SAGGSAGGSMTRTAKYESPEEAREDALAALPPGWSVTVTVSEGEGKLRFTITVTPPPADPAAASAGGSAGGS [r12_195_JUSTAS] | 1.93 ± 0.059 kcal/mol | 1.34 ± 0.13 kcal/mol |
| SAGGSAGGSAGGSVLFDSEEEAEAALKAAGLELSSVTKTEEDGEPKVLVPVARRPPPALASAGGSAGGSAGG [r11_141_JUSTAS] | 1.44 ± 0.033 kcal/mol | 0.959 ± 0.086 kcal/mol |
| SAGGSAGGSAAVEVPESAIVERDPSTGRLLVPAPSGVPIVVTVDPSDPARVSTSDPAAAAAGSAGGSAGGSA [r18_418_JUSTAS] | 1.65 ± 0.032 kcal/mol | 1.12 ± 0.091 kcal/mol |
| SAGGSAGGSAGMKKYLVTVTPPDGTTTTVTVPDDPAAAIAAARAAFPGATVTVTPLTEPASAGGSAGGSAGG [r11_850_JUSTAS] | 1.4 ± 0.022 kcal/mol | 0.937 ± 0.037 kcal/mol |
| SAGGSAGGSAGGPVVTVEPPGGELKTLAVPPSHPAVLEELLASGGRVTVLDPETGEAFDVSAGGSAGGSAGG [r7_430_TrMRF] | 1.02 ± 0.055 kcal/mol | 0.164 ± 0.14 kcal/mol |
| SAGGSAGGSDVIEVDFPDGVSIHMHPENDMVEVENPDNNKKRVIHPGKSPEEALDYIANGEPISAGGSAGGS [r12_832_TrROS] | 1.04 ± 0.057 kcal/mol | 0.433 ± 0.27 kcal/mol |
| SAGGSAGGDLIDEALENMPPGQEVEIKVEAYLPDGMPGEDEIEVKVEPPKPPPSPEDRKERKDQSAGGSAGG [r6_893_TrROS] | 1.34 ± 0.1 kcal/mol | 0.667 ± 0.39 kcal/mol |
| SAGGSAGGSAGGDPNLEAELVATATYTNPLTGKTVTLNVLRVTRSEDGTSAPVVFLEDLSAGGSAGGSAGGS [r10_535_TrMRF] | 1.22 ± 0.21 kcal/mol | 0.728 ± 0.24 kcal/mol |
| SAGGSAGGSAGGEVLELPNELVLVEKLPENPDVVRVTTITLPPGGTVATQVTLDPVPPELSAGGSAGGSAGG [r17_184_JUSTAS] | 1.16 ± 0.04 kcal/mol | 0.771 ± 0.091 kcal/mol |
| SAGGSAGGSAGGSMTKTTYDPSGYTDLPDLPPDHTITVTTTVDPSGPSTVTVTVTVTPPSAGGSAGGSAGGS [r10_1233_JUSTAS] | 1.6 ± 0.051 kcal/mol | 1.05 ± 0.09 kcal/mol |
| SAGGSAGGSAGGDPLLPLEGVLARVTSVEVEGAFLEPDGRLLGTVRVTVTFVELAPPDNPSAGGSAGGSAGG [r7_614_TrMRF] | 2.48 ± 0.052 kcal/mol | 2.04 ± 0.074 kcal/mol |
| SMKTVELKIVIPGMTEEELKKLVEKLKELGNVEVTIEYDEETKEVVITVKVNVTPEQEEALKKALEEALKSA [r9_652_TrROS_Hall] | 2.22 ± 0.21 kcal/mol | 3.26 ± 0.63 kcal/mol |
| SAGMVLRADSLEEARALAEELGVPYVFGRDPDADVAFLLRFGDGELDPVVTVPLDDPAAVALLRALGAESAG [r5_458_JUSTAS] | 1.34 ± 0.18 kcal/mol | 0.689 ± 0.12 kcal/mol |
| SAGGSAGGSAASPGEVVTETVTTTETDPPSPTVRTVVTRLVRRPDGTVLERRPVSVTTDPAAASAGGSAGGS [r12_504_JUSTAS] | 1.16 ± 0.13 kcal/mol | 0.513 ± 0.19 kcal/mol |
| SAGGSAGGSAGGSPEVERERVKRELEEAGIPLESIEVSTEPVEPGREVHVTVNPPPELPSAGGSAGGSAGGS [r10_1122_JUSTAS] | 1.29 ± 0.14 kcal/mol | 0.616 ± 0.13 kcal/mol |
| SAGGSAGGSAGVIVPAGSVVRVRFPDGDEVEIPVANPFLEIEDAGDVEVEVTPGLRDSPVSAGGSAGGSAGG [r11_43_TrMRF] | 1.13 ± 0.045 kcal/mol | 0.567 ± 0.12 kcal/mol |
| SSSIPRTRVEEDPEKKTTTTTEVTTTPLPNGTYETTTTTTTTTFSPSGGSTVTTTTTTTTHPSPSVPGLGSA [r9_305_JUSTAS] | 1.24 ± 0.044 kcal/mol | 0.769 ± 0.099 kcal/mol |
| SAGGSAGGSAGGGMTVTEEEAPDGTRVRTVTRPPEPVTTVVTLAPDGSETVTTIPVVPASAGGSAGGSAGGS [r10_595_JUSTAS] | 1.3 ± 0.024 kcal/mol | 0.789 ± 0.064 kcal/mol |
| SAGPAAAVPELRELTLHLPVPGLPLPVVAALVAEELGWEVTSVEEGDDVFVFTVPDGVPIRVHLGVPGLSAG [r5_350_TrMRF] | 1.39 ± 0.081 kcal/mol | 0.849 ± 0.065 kcal/mol |
| SAGGSAGGSAGGSPNRQERDIPLNDGKIKIEVDPDNAHVEFPNGGEKTMPPEDLEEALQSAGGSAGGSAGGS [r4_242_TrROS] | 1.12 ± 0.058 kcal/mol | 0.551 ± 0.09 kcal/mol |
| SAGGPTRVRATIEFPELGVPVEVTVPADDPDMTPEEALRRLRERARRLAELLRRLLELPPAPPPSPELSAGG [r13_126_TrMRF] | 3.105 ± 0.031 kcal/mol | 2.57 ± 0.068 kcal/mol |
| SAGGVDISPDETVEYEHPTAKITITRLPDGSLLVTVTDPATGEPITLPFPGGESIEEIIEKVKEALESAGGS [r8_158_JUSTAS] | 2.91 ± 0.18 kcal/mol | – |
| SAGGSAIKITKVEYEPNPDGWREIHFKATPGDPDFLDEIAEALPPDNIEPTEVDEKGYYEIRIPRPSAGGSA [r15_386_TrROS] | – | -0.291 ± 0.17 kcal/mol |
| SETITLTLTIKVNGKTVKIELTIEKNEDGSYTLTVKIEVTNENGEKKEITITLEVPNMSLEEILKKLLESSA [r9_217_TrROS_Hall] | – | > 6 kcal/mol |

An excerpt of these results, with tabs.
Sequence	folding stability dG unfold [1]	folding stability dG unfold [2]
SAGGSAGGSAGGSVLFDSEEEAEAALKAAGLELSSVTKTEEDGEPKVLVPVARRPPPALASAGGSAGGSAGG [r11_141_JUSTAS]	1.44 ± 0.033 kcal/mol	0.959 ± 0.086 kcal/mol
SAGGSAGGSAAVEVPESAIVERDPSTGRLLVPAPSGVPIVVTVDPSDPARVSTSDPAAAAAGSAGGSAGGSA [r18_418_JUSTAS]	1.65 ± 0.032 kcal/mol	1.12 ± 0.091 kcal/mol
